{"source": "the supplement of paper PMC6411743", "assay_in_all_cases": "NP40-soluble protein abundance relative to vehicle (solubility fold change) (ratio); higher = more soluble protein in presence of GTP", "key": {"[1]": {"biological_target": "T1, C9J6V2 and related entries (UniProt Q8TA86)", "T1 sequence (whole entry)": "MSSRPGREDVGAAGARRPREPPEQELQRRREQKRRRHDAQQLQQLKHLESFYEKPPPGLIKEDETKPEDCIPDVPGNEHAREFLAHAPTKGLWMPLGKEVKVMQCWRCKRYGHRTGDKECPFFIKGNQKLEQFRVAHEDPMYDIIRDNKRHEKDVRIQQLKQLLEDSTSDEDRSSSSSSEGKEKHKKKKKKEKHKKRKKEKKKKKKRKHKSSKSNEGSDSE", "summary_of_the_method": "(§1)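 In three independent experiments, Jurkat crude lysate made by Dounce homogenisation was treated for 10 min at room temperature and then 3 min at 37 °C with eight concentrations ranging from 0.1 to 10 mM. It was then solubilised with 0.8% NP40 plus benzonase for 60 min at 4 °C and ultracentrifuged. The supernatant was TMT-labelled for LC-MS/MS, and each value is the fold change against the detergent-processed vehicle for the same replicate, using vsn-normalised intensities.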"}, "[2]": {"biological_target": "T2, C9JDR0 and related entries (UniProt Q15738)", "T2 sequence (whole entry)": "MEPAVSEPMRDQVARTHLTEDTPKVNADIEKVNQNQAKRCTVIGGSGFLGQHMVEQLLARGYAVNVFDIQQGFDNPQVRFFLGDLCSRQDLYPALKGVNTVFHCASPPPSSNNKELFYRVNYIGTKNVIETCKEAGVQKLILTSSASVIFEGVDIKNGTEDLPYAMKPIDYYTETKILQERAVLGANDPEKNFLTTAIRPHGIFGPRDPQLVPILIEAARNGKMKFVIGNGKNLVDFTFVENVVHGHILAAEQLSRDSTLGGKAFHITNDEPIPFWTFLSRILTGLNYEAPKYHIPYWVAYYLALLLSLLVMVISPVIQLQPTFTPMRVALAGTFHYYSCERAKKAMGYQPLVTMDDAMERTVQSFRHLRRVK", "summary_of_the_method": "as §1"}, "[3]": {"biological_target": "T3, C9JYA1 and related entries (UniProt O15504)", "T3 sequence (whole entry)": "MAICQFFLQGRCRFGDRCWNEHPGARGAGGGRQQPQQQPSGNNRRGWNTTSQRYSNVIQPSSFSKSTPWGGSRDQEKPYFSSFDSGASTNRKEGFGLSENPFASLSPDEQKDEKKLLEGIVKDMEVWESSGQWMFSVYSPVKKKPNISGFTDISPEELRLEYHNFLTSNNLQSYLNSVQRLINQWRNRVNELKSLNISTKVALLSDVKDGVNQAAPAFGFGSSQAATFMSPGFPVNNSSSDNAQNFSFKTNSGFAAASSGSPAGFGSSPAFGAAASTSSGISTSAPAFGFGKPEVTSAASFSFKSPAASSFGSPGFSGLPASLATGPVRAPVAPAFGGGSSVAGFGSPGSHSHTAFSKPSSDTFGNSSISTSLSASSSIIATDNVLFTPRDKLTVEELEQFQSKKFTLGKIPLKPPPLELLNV", "summary_of_the_method": "as §1"}, "[4]": {"biological_target": "T4, D6RDX7 and related entries (UniProt Q6PCB8)", "T4 sequence (whole entry)": "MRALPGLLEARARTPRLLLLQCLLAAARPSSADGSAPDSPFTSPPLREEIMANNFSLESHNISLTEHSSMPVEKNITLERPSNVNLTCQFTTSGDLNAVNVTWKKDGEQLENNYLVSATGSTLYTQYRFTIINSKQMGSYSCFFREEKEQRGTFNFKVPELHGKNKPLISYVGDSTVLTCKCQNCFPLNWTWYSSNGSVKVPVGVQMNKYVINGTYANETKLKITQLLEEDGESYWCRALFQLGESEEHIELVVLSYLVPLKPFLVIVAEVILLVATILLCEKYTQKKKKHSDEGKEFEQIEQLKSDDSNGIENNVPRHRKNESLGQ", "summary_of_the_method": "as §1"}}, "note": "± gives the standard deviation of the averaged measurements. The list shows a part of the results.", "data": [{"smiles": "Nc1nc2c(ncn2[C@@H]2O[C@H](COP(=O)(O)OP(=O)(O)OP(=O)(O)O)[C@@H](O)[C@H]2O)c(=O)[nH]1", "note": "[guanosine triphosphate]", "values": [{"measurement": "NP40-soluble protein abundance", "setting": "[1]; concentration: 0.1mM", "value": "0.998 ± 0.12"}, {"measurement": "NP40-soluble protein abundance", "setting": "[1]; concentration: 0.5mM", "value": "0.991 ± 0.067"}, {"measurement": "NP40-soluble protein abundance", "setting": "[1]; concentration: 1mM", "value": "1.07 ± 0.015"}, {"measurement": "NP40-soluble protein abundance", "setting": "[1]; concentration: 2mM", "value": "1.02 ± 0.057"}, {"measurement": "NP40-soluble protein abundance", "setting": "[1]; concentration: 4mM", "value": "0.9939 ± 0.0064"}, {"measurement": "NP40-soluble protein abundance", "setting": "[1]; concentration: 6mM", "value": "1.04 ± 0.12"}, {"measurement": "NP40-soluble protein abundance", "setting": "[1]; concentration: 8mM", "value": "1.04 ± 0.052"}, {"measurement": "NP40-soluble protein abundance", "setting": "[1]; concentration: 10mM", "value": "1.2 ± 0.16"}, {"measurement": "NP40-soluble protein abundance", "setting": "[2]; concentration: 0.1mM", "value": "0.987 ± 0.025"}, {"measurement": "NP40-soluble protein abundance", "setting": "[2]; concentration: 0.5mM", "value": "0.976 ± 0.035"}, {"measurement": "NP40-soluble protein abundance", "setting": "[2]; concentration: 1mM", "value": "0.882 ± 0.028"}, {"measurement": "NP40-soluble protein abundance", "setting": "[2]; concentration: 2mM", "value": "0.865 ± 0.051"}, {"measurement": "NP40-soluble protein abundance", "setting": "[2]; concentration: 4mM", "value": "0.845 ± 0.051"}, {"measurement": "NP40-soluble protein abundance", "setting": "[2]; concentration: 6mM", "value": "0.85 ± 0.049"}, {"measurement": "NP40-soluble protein abundance", "setting": "[2]; concentration: 8mM", "value": "0.806 ± 0.048"}, {"measurement": "NP40-soluble protein abundance", "setting": "[2]; concentration: 10mM", "value": "0.807 ± 0.087"}, {"measurement": "NP40-soluble protein abundance", "setting": "[3]; concentration: 0.1mM", "value": "0.963 ± 0.11"}, {"measurement": "NP40-soluble protein abundance", "setting": "[3]; concentration: 0.5mM", "value": "1.04 ± 0.026"}, {"measurement": "NP40-soluble protein abundance", "setting": "[3]; concentration: 1mM", "value": "0.993 ± 0.1"}, {"measurement": "NP40-soluble protein abundance", "setting": "[3]; concentration: 2mM", "value": "1.077 ± 0.0087"}, {"measurement": "NP40-soluble protein abundance", "setting": "[3]; concentration: 4mM", "value": "1.04 ± 0.03"}, {"measurement": "NP40-soluble protein abundance", "setting": "[3]; concentration: 6mM", "value": "1.17 ± 0.14"}, {"measurement": "NP40-soluble protein abundance", "setting": "[3]; concentration: 8mM", "value": "1.21 ± 0.15"}, {"measurement": "NP40-soluble protein abundance", "setting": "[3]; concentration: 10mM", "value": "1.41 ± 0.12"}, {"measurement": "NP40-soluble protein abundance", "setting": "[4]; concentration: 0.1mM", "value": "0.903 ± 0.059"}, {"measurement": "NP40-soluble protein abundance", "setting": "[4]; concentration: 0.5mM", "value": "0.899 ± 0.061"}, {"measurement": "NP40-soluble protein abundance", "setting": "[4]; concentration: 1mM", "value": "0.975 ± 0.11"}, {"measurement": "NP40-soluble protein abundance", "setting": "[4]; concentration: 2mM", "value": "0.913 ± 0.072"}]}]}
